PubChem BioAssay AID1347423 (Functional Genomics Laboratory (NCATS/FGL), 2020)
The whole screen tested about 52,000 sequences, of which about 210 (0.4%) were called active.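 The calls were made as follows: active = gene whose silencing raises cell survival under the drug, median off-target-corrected z-score across its silencing RNAs 2 or more; inactive = the rest.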 Some of the results follow.

Assay: Resistance to Poly (ADP-Ribose) Polymerase inhibitor: Gene Identification via Genome-wide siRNA Screen
Conditions: mouse BRCA2 R2336H ES cells, olaparib, CellTiter-Glo viability; hits give high values
Method in brief: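 Genome-wide siRNA screen (3 siRNAs/gene, 20 nM) in mouse ES cells carrying hypomorphic BRCA2 R2336H; olaparib 500 nM added 48 h post-transfection, CellTiter-Glo viability 72 h later. Normalized to plate-median negative control; MAD z-scores, gene median, seed-adjusted.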

| Sequence | z-score |
| --- | --- |
| GGCAGCAAAGUCAAGAUGUTT against Msgn1 | inactive: -0.17 |
| GGGUUAAUGCAUCAUUUGATT against Mef2d | inactive: 1.42 |
| GGCCCAGGAUAUUUUAGUUTT against Gm574 | inactive: 1.01 |
| GGAUGUUAAUGGAUUCACATT against Ptprt | inactive: -0.779 |
| CCAAGACUGUGACAAGUUUTT against Ctsz | inactive: 0.254 |
| GGACAUUAUCAAGUUUCUGTT against Fkbp3 | inactive: 0.237 |
| GGUGUGGGAUUUCUACACUTT against B230113C15Rik | inactive: 1.13 |
| GACAGAAAUAUAGACUCGATT against 4930418G15Rik | inactive: -2.57 |
| GGGAACAAGACAACACAGCTT against Adam11 | inactive: 0.0583 |
| GGCAAACGAAUGCAUGUACTT against 4921506I22Rik | inactive: 0.952 |
| GGAUCCAUCCGUCUCUAAGTT against 4930535B03Rik | inactive: -1.95 |
| GGUUGAAUAUACUUAGCACTT against A030008J09 | inactive: 0.746 |
| GGAUAAUGCUCCAUCAUAGTT against Nab1 | inactive: -0.571 |
| GGACCUCUAAAAGGAAAAUTT against Tdrd7 | inactive: -0.25 |
| GCCUAAGUUCCCUUAUUAATT against Arfrp1 | inactive: 0.0934 |
| CCUGAACCAACAACGCAAATT against Zfp278 | inactive: 1.21 |
| CCAACGCGUGUUAUAUGUGTT against Prep | inactive: 2.5 |
| GCUAACACCUCACAUCUGGTT against Adam1a | inactive: 0.211 |
| GGUUUAUCACAACUACCGCTT against AI839735 | inactive: -0.133 |
| GGUUGUAAAGGAAGAGAAGTT against Xlkd1 | inactive: -1.33 |
| CCAAUUGGAAGAAUCCAGGTT against 9930109F21 | inactive: -0.0734 |
| GAGAGAUUGGUAUUCCUGCTT against Olfr578 | inactive: 0.663 |
| GGUGUCUUUUUUCCUCUUCTT against Adcy4 | inactive: -0.895 |
| GGUACUAGAUUGGAUGUCATT against Slc39a14 | inactive: -1.42 |
| CCAUAUUGAAACCUCAUUUTT against Drctnnb1a | inactive: 0.0306 |
| CCGUCAUUGUCUUGGAAGCTT against Syt5 | inactive: 1.47 |

| Sequence | z-score |
| --- | --- |
| GCGAAGGCUAGAUGUAGUGTT against Emilin1 | inactive: 1.34 |
| GCUCAUGCCAAGGUACGAUTT against 1110015K06Rik | inactive: 1.22 |
| GGAGACCACGUCCAACAAUTT against Sh3bp2 | inactive: 2.61 |
| GCGUGAUUUUCCCUUGAGGTT against Cyp3a16 | inactive: 0.253 |
| GGAGAUCUCCAUCACACACTT against Rps6ka1 | inactive: 0.796 |
| GGUUUAUGAGUAACUGUCATT against Defb10 | inactive: -2.73 |
| GGACAAUAGUGUGCUACCATT against 2900055D03Rik | inactive: 2.24 |
| GGAGAUGGCUUUGAUGCUGTT against Gnmt | inactive: 0.262 |
| GGAACCUGUUUGUUUAUCATT against Centa2 | inactive: 0.181 |
| GGUAUGGAUCAAGGUUCUUTT against A530015O12Rik | inactive: -1.14 |
| GGAAGCUGUAGAAACACAUTT against Nbn | inactive: 1.25 |
| GGAGUGUUUGGUUUCUAUATT against 1200007B05Rik | inactive: 1.1 |
| ACCCUCACCUCGCAUGACUTT against 2700061N24Rik | inactive: 0.53 |
| GGUACCAUAUGAGAGCUAATT against 2310007F12Rik | inactive: 2.05 |
| GGCCUUAGUAUUCUGCCUCTT against B230104P22Rik | inactive: 0.809 |
| GCUGUUUGCCUGGAAUUGGTT against 1110020P15Rik | inactive: -0.198 |
| GGAAAACAUACUGCUUUGATT against 2210412D01Rik | inactive: -0.0321 |
| CGUCUAUCUUGGAUUACUATT against Dll1 | inactive: -0.697 |
| GGAUAUUCUGGACCACUGATT against Myoz2 | inactive: -0.97 |
| GCACUGAUGUAAGGUAACCTT against Prdm4 | inactive: 0.698 |
| GGACGUGCUGUAUUUCAAGTT against Gal3st1 | inactive: 0.496 |
| GGCUUUUCGUUCUCUGUCATT against A530054K11Rik | inactive: -0.808 |
| CGCUGCCUAAACAAGAUUATT against Cacna1f | inactive: 0.274 |
| CCAUUGGAGGAUAAGUUUUTT against Mtm1 | inactive: -0.207 |
| CGACAAAAGUACUUCGAGCTT against Scrib | inactive: 0.719 |
| GGAAAAAGCUGUGAUACUUTT against Hspbap1 | inactive: -0.24 |

Shown with tabs: part of the list above
Sequence	z-score
GCUCAUGCCAAGGUACGAUTT against 1110015K06Rik	inactive: 1.22
GGAGACCACGUCCAACAAUTT against Sh3bp2	inactive: 2.61
